Measurements: patent US8937072B2, “Substituted cyanoaniline compounds, preparation and use thereof” (Sinochem Corporation, priority 2011, dated 2015)
Read-outs that look alike come from different tables or passages of the source. Some results were stated once for a whole list of compounds, not compound by compound.

How the values were obtained:
[1] = tested on: rice blast; format: cell-based; details: in vitro
[2] = tested on: cucumber gray mold; assay: Activity in vitro (96-well, High Through Put): inhibition rate against cucumber gray mold; format: cell-based
Method: The method is as followed: High Through Put is used in the test. The compound is dissolved in a proper solvent to become a testing solution whose concentration is designed. The solvent is selected from acetone, methanol, DMF and so on according to their dissolving capability to the sample. In a no animalcule condition, the testing solution and pathogens suspension are added into the cells of 96 cells culture board, which then should be placed in the constant temperature box. 24 hours later, pathogen germination or growth can be investigated by eyeballing, and the activity in vitro of the compound is evaluated based on germination or growth of control treatment.

N#Cc1c(Cl)c(Cl)c(Nc2cccc(Cl)c2Cl)c(C#N)c1Cl [Compound B-16]
inhibition rate against rice blast ([1]; dose 2.8 mg/L): 100%
inhibition rate against rice blast ([1]; dose 8.3 mg/L): 100%
inhibition rate against rice blast ([1]; dose 25 mg/L): 100%

N#Cc1c(F)c(F)c(C#N)c(Nc2ccc(Cl)cc2[N+](=O)[O-])c1F [Compound C-89]
inhibition rate against rice blast ([1]; dose 0.9 mg/L): 100%
inhibition rate against rice blast ([1]; dose 2.8 mg/L): 100%
inhibition rate against rice blast ([1]; dose 8.3 mg/L): 100%
inhibition rate against rice blast ([1]; dose 25 mg/L): 100%
inhibition rate against cucumber gray mold ([2]; dose 2.8 mg/L): 80%
inhibition rate against cucumber gray mold ([2]; dose 8.3 mg/L): 100%
inhibition rate against cucumber gray mold ([2]; dose 25 mg/L): 100%

COc1ccc(Nc2c(Cl)c(Cl)c(C#N)c(C#N)c2Cl)cc1 [Compound A-9]
inhibition rate against rice blast ([1]; dose 0.9 mg/L): 80%
inhibition rate against rice blast ([1]; dose 2.8 mg/L): 100%
inhibition rate against rice blast ([1]; dose 8.3 mg/L): 100%
inhibition rate against rice blast ([1]; dose 25 mg/L): 100%

N#Cc1cc(Cl)c(Nc2c(Cl)c(Cl)c(C#N)c(Cl)c2C#N)c(Cl)c1 [Compound B-51]
inhibition rate against rice blast ([1]; dose 0.3 mg/L): 100%
inhibition rate against rice blast ([1]; dose 0.9 mg/L): 100%
inhibition rate against rice blast ([1]; dose 2.8 mg/L): 100%
inhibition rate against rice blast ([1]; dose 8.3 mg/L): 100%
inhibition rate against rice blast ([1]; dose 25 mg/L): 100%
inhibition rate against cucumber gray mold ([2]; dose 2.8 mg/L): 80%
inhibition rate against cucumber gray mold ([2]; dose 8.3 mg/L): 100%
inhibition rate against cucumber gray mold ([2]; dose 25 mg/L): 100%

N#Cc1c(Cl)c(Cl)c(C#N)c(Nc2c(F)cc([N+](=O)[O-])cc2F)c1Cl [Compound C-45]
inhibition rate against rice blast ([1]; dose 0.3 mg/L): 100%
inhibition rate against rice blast ([1]; dose 0.9 mg/L): 100%
inhibition rate against rice blast ([1]; dose 2.8 mg/L): 100%
inhibition rate against rice blast ([1]; dose 8.3 mg/L): 100%
inhibition rate against rice blast ([1]; dose 25 mg/L): 100%
inhibition rate against cucumber gray mold ([2]; dose 0.3 mg/L): 100%
inhibition rate against cucumber gray mold ([2]; dose 0.9 mg/L): 100%
inhibition rate against cucumber gray mold ([2]; dose 2.8 mg/L): 100%
inhibition rate against cucumber gray mold ([2]; dose 8.3 mg/L): 100%
inhibition rate against cucumber gray mold ([2]; dose 25 mg/L): 100%

N#Cc1c(F)c(F)c(C#N)c(Nc2c(Cl)cncc2Cl)c1F [Compound C-125]
inhibition rate against rice blast ([1]; dose 8.3 mg/L): 100%
inhibition rate against rice blast ([1]; dose 25 mg/L): 100%
inhibition rate against cucumber gray mold ([2]; dose 25 mg/L): 100%

N#Cc1c(Cl)c(Cl)c(C#N)c(Nc2cc([N+](=O)[O-])ccc2Cl)c1Cl [Compound C-29]
inhibition rate against rice blast ([1]; dose 0.9 mg/L): 80%
inhibition rate against rice blast ([1]; dose 2.8 mg/L): 100%
inhibition rate against rice blast ([1]; dose 8.3 mg/L): 100%
inhibition rate against rice blast ([1]; dose 25 mg/L): 100%

N#Cc1c(Cl)c(Cl)c(C#N)c(Nc2c(Br)cc([N+](=O)[O-])cc2Br)c1Cl [Compound C-41]
inhibition rate against rice blast ([1]; dose 0.3 mg/L): 100%
inhibition rate against rice blast ([1]; dose 0.9 mg/L): 100%
inhibition rate against rice blast ([1]; dose 2.8 mg/L): 100%
inhibition rate against rice blast ([1]; dose 8.3 mg/L): 100%
inhibition rate against rice blast ([1]; dose 25 mg/L): 100%
inhibition rate against cucumber gray mold ([2]; dose 2.8 mg/L): 80%
inhibition rate against cucumber gray mold ([2]; dose 8.3 mg/L): 100%
inhibition rate against cucumber gray mold ([2]; dose 25 mg/L): 100%

N#Cc1c(Cl)c(Cl)c(C#N)c(Nc2ncccn2)c1Cl [Compound C-126]
inhibition rate against rice blast ([1]; dose 25 mg/L): 100%

N#Cc1c(F)c(F)c(C#N)c(Nc2c(Cl)cc([N+](=O)[O-])cc2Br)c1F [Compound C-99]
inhibition rate against rice blast ([1]; dose 0.3 mg/L): 100%
inhibition rate against rice blast ([1]; dose 0.9 mg/L): 100%
inhibition rate against rice blast ([1]; dose 2.8 mg/L): 100%
inhibition rate against rice blast ([1]; dose 8.3 mg/L): 100%
inhibition rate against rice blast ([1]; dose 25 mg/L): 100%
inhibition rate against cucumber gray mold ([2]; dose 25 mg/L): 80%

N#Cc1c(Cl)c(Cl)c(Nc2ccc(Br)cn2)c(C#N)c1Cl [Compound B-122]
inhibition rate against rice blast ([1]; dose 2.8 mg/L): 80%
inhibition rate against rice blast ([1]; dose 8.3 mg/L): 100%
inhibition rate against rice blast ([1]; dose 25 mg/L): 100%
inhibition rate against cucumber gray mold ([2]; dose 8.3 mg/L): 100%
inhibition rate against cucumber gray mold ([2]; dose 25 mg/L): 100%

N#Cc1c(Cl)c(Cl)c(Nc2ccc(Cl)cc2Cl)c(C#N)c1Cl [Compound B-18]
inhibition rate against rice blast ([1]; dose 25 mg/L): 100%

N#Cc1c(Cl)c(Cl)c(Nc2cc(C(F)(F)F)ccc2Cl)c(C#N)c1Cl [Compound B-29]
inhibition rate against rice blast ([1]; dose 0.3 mg/L): 100%
inhibition rate against rice blast ([1]; dose 0.9 mg/L): 100%
inhibition rate against rice blast ([1]; dose 2.8 mg/L): 100%
inhibition rate against rice blast ([1]; dose 8.3 mg/L): 100%
inhibition rate against rice blast ([1]; dose 25 mg/L): 100%
inhibition rate against cucumber gray mold ([2]; dose 2.8 mg/L): 80%
inhibition rate against cucumber gray mold ([2]; dose 25 mg/L): 100%

N#Cc1c(F)c(F)c(C#N)c(Nc2ccc([N+](=O)[O-])cc2Cl)c1F [Compound C-80]
inhibition rate against rice blast ([1]; dose 0.9 mg/L): 80%
inhibition rate against rice blast ([1]; dose 2.8 mg/L): 100%
inhibition rate against rice blast ([1]; dose 8.3 mg/L): 100%
inhibition rate against rice blast ([1]; dose 25 mg/L): 100%
inhibition rate against cucumber gray mold ([2]; dose 25 mg/L): 80%

N#Cc1c(Cl)c(Cl)c(C#N)c(Nc2ccc(Br)cn2)c1Cl [Compound C-109]
inhibition rate against rice blast ([1]; dose 25 mg/L): 100%

COc1ccc(Nc2c(F)c(C#N)c(F)c(F)c2C#N)cc1 [Compound C-68]
inhibition rate against rice blast ([1]; dose 25 mg/L): 100%

N#Cc1c(Cl)c(Cl)c(C#N)c(Nc2ccc([N+](=O)[O-])cc2Cl)c1Cl [Compound C-28]
inhibition rate against rice blast ([1]; dose 25 mg/L): 100%
inhibition rate against cucumber gray mold ([2]; dose 25 mg/L): 100%

N#Cc1c(Cl)c(Cl)c(C#N)c(Nc2ccc(Cl)cc2[N+](=O)[O-])c1Cl [Compound C-33]
inhibition rate against rice blast ([1]; dose 8.3 mg/L): 100%
inhibition rate against rice blast ([1]; dose 25 mg/L): 100%

N#Cc1c(Cl)c(Cl)c(Nc2cc(C(F)(F)F)ccc2F)c(C#N)c1Cl [Compound B-30]
inhibition rate against rice blast ([1]; dose 0.3 mg/L): 100%
inhibition rate against rice blast ([1]; dose 0.9 mg/L): 100%
inhibition rate against rice blast ([1]; dose 2.8 mg/L): 100%
inhibition rate against rice blast ([1]; dose 8.3 mg/L): 100%
inhibition rate against rice blast ([1]; dose 25 mg/L): 100%

COC(=O)c1cc(Cl)c(Nc2c(Cl)c(Cl)c(C#N)c(Cl)c2C#N)c(Cl)c1 [Compound B-62]
inhibition rate against rice blast ([1]; dose 0.3 mg/L): 100%
inhibition rate against rice blast ([1]; dose 0.9 mg/L): 100%
inhibition rate against rice blast ([1]; dose 2.8 mg/L): 100%
inhibition rate against rice blast ([1]; dose 8.3 mg/L): 100%
inhibition rate against rice blast ([1]; dose 25 mg/L): 100%
inhibition rate against cucumber gray mold ([2]; dose 25 mg/L): 80%

N#Cc1c(Cl)c(Cl)c(Nc2ccc(Cl)c(C(F)(F)F)c2)c(Cl)c1C#N [Compound A-39]
inhibition rate against rice blast ([1]; dose 2.8 mg/L): 80%
inhibition rate against rice blast ([1]; dose 8.3 mg/L): 100%
inhibition rate against rice blast ([1]; dose 25 mg/L): 100%

N#Cc1cc([N+](=O)[O-])cc(Br)c1Nc1c(F)c(F)c(C#N)c(F)c1C#N [Compound B-116]
inhibition rate against rice blast ([1]; dose 0.9 mg/L): 100%
inhibition rate against rice blast ([1]; dose 2.8 mg/L): 100%
inhibition rate against rice blast ([1]; dose 8.3 mg/L): 100%
inhibition rate against rice blast ([1]; dose 25 mg/L): 100%
inhibition rate against cucumber gray mold ([2]; dose 8.3 mg/L): 100%
inhibition rate against cucumber gray mold ([2]; dose 25 mg/L): 100%

N#Cc1c(Cl)c(Cl)c(Nc2c(Br)cc([N+](=O)[O-])cc2Br)c(Cl)c1C#N [Compound A-45]
inhibition rate against rice blast ([1]; dose 0.3 mg/L): 100%
inhibition rate against rice blast ([1]; dose 0.9 mg/L): 100%
inhibition rate against rice blast ([1]; dose 2.8 mg/L): 100%
inhibition rate against rice blast ([1]; dose 8.3 mg/L): 100%
inhibition rate against rice blast ([1]; dose 25 mg/L): 100%
inhibition rate against cucumber gray mold ([2]; dose 2.8 mg/L): 100%
inhibition rate against cucumber gray mold ([2]; dose 8.3 mg/L): 100%
inhibition rate against cucumber gray mold ([2]; dose 25 mg/L): 100%

Cc1cc(Cl)cc([N+](=O)[O-])c1Nc1c(Cl)c(Cl)c(C#N)c(Cl)c1C#N [Compound B-59]
inhibition rate against rice blast ([1]; dose 2.8 mg/L): 100%
inhibition rate against rice blast ([1]; dose 8.3 mg/L): 100%
inhibition rate against rice blast ([1]; dose 25 mg/L): 100%
inhibition rate against cucumber gray mold ([2]; dose 25 mg/L): 100%

Cc1ccnc(Nc2c(Cl)c(Cl)c(C#N)c(C#N)c2Cl)c1 [Compound A-80]
inhibition rate against rice blast ([1]; dose 25 mg/L): 80%

Cc1ccc(Nc2c(Cl)c(C#N)c(Cl)c(Cl)c2C#N)nc1 [Compound C-111]
inhibition rate against rice blast ([1]; dose 25 mg/L): 100%

N#Cc1c(Cl)c(Cl)c(C#N)c(Nc2ccc(Cl)cc2Cl)c1Cl [Compound C-15]
inhibition rate against rice blast ([1]; dose 0.9 mg/L): 100%
inhibition rate against rice blast ([1]; dose 2.8 mg/L): 100%
inhibition rate against rice blast ([1]; dose 8.3 mg/L): 100%
inhibition rate against rice blast ([1]; dose 25 mg/L): 100%

N#Cc1c(Cl)c(Cl)c(Nc2ccc(Cl)cc2[N+](=O)[O-])c(Cl)c1C#N [Compound A-23]
inhibition rate against rice blast ([1]; dose 25 mg/L): 80%

N#Cc1c(Cl)c(Cl)c(Nc2ccc(Cl)cc2[N+](=O)[O-])c(C#N)c1Cl [Compound B-39]
inhibition rate against rice blast ([1]; dose 0.3 mg/L): 100%
inhibition rate against rice blast ([1]; dose 0.9 mg/L): 100%
inhibition rate against rice blast ([1]; dose 2.8 mg/L): 100%
inhibition rate against rice blast ([1]; dose 8.3 mg/L): 100%
inhibition rate against rice blast ([1]; dose 25 mg/L): 100%

N#Cc1c(Cl)c(Cl)c(C#N)c(Nc2cc(Cl)cnc2Cl)c1Cl [Compound C-118]
inhibition rate against rice blast ([1]; dose 0.3 mg/L): 100%
inhibition rate against rice blast ([1]; dose 0.9 mg/L): 100%
inhibition rate against rice blast ([1]; dose 2.8 mg/L): 100%
inhibition rate against rice blast ([1]; dose 8.3 mg/L): 100%
inhibition rate against rice blast ([1]; dose 25 mg/L): 100%

N#Cc1c(Cl)c(Cl)c(Nc2cccnc2Cl)c(C#N)c1Cl [Compound B-131]
inhibition rate against rice blast ([1]; dose 8.3 mg/L): 100%
inhibition rate against rice blast ([1]; dose 25 mg/L): 100%

COc1ccc(Nc2c(Cl)c(C#N)c(Cl)c(Cl)c2C#N)cc1 [Compound C-14]
inhibition rate against rice blast ([1]; dose 25 mg/L): 100%

N#Cc1ccc(Nc2c(Cl)c(C#N)c(Cl)c(Cl)c2C#N)cc1C(F)(F)F [Compound C-38]
inhibition rate against rice blast ([1]; dose 2.8 mg/L): 100%
inhibition rate against rice blast ([1]; dose 8.3 mg/L): 100%
inhibition rate against rice blast ([1]; dose 25 mg/L): 100%

N#Cc1c(Cl)c(Cl)c(Nc2ccc(Cl)cc2Cl)c(Cl)c1C#N [Compound A-29]
inhibition rate against rice blast ([1]; dose 0.9 mg/L): 80%
inhibition rate against rice blast ([1]; dose 2.8 mg/L): 100%
inhibition rate against rice blast ([1]; dose 8.3 mg/L): 100%
inhibition rate against rice blast ([1]; dose 25 mg/L): 100%

Cc1ccnc(Nc2c(Cl)c(Cl)c(C#N)c(Cl)c2C#N)c1Br [Compound B-123]
inhibition rate against rice blast ([1]; dose 25 mg/L): 100%

N#Cc1cc(C#N)c(Cl)c(Nc2c(Cl)c(Cl)c(C#N)c(C#N)c2Cl)c1 [Compound A-59]
inhibition rate against rice blast ([1]; dose 25 mg/L): 80%

Cc1cc(Cl)ccc1Nc1c(Cl)c(Cl)c(C#N)c(Cl)c1C#N [Compound B-22]
inhibition rate against rice blast ([1]; dose 25 mg/L): 100%

Cc1cnc(Nc2c(Cl)c(Cl)c(C#N)c(Cl)c2C#N)c(Br)c1 [Compound B-124]
inhibition rate against rice blast ([1]; dose 25 mg/L): 100%

COc1cc([N+](=O)[O-])ccc1Nc1c(Cl)c(C#N)c(Cl)c(Cl)c1C#N [Compound C-35]
inhibition rate against rice blast ([1]; dose 2.8 mg/L): 80%
inhibition rate against rice blast ([1]; dose 8.3 mg/L): 100%
inhibition rate against rice blast ([1]; dose 25 mg/L): 100%
